Measured values reported in paper PMC7498314, “Microcephaly family protein MCPH1 stabilizes RAD51 filaments” (Nucleic Acids Research, 2020).
These are yes or no findings as the source states them, for the method shown. Where a sequence is shown, tags or fusion partners need not be part of it.

The chains behind the UniProt entries cited, without tags or fusion partners.
UniProt P0A7G6: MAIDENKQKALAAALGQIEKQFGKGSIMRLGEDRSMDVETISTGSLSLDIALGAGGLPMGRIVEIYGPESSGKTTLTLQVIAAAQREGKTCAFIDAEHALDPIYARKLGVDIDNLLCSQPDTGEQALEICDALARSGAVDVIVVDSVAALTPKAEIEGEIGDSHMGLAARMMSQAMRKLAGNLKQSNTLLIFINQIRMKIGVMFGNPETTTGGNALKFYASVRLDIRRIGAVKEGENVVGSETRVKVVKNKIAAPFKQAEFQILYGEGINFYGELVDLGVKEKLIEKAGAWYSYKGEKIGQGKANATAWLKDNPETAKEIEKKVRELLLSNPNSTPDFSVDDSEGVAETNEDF

Biological target: T1, (His)6-MBP-tagged mouse MCPH1 (Microcephalin 1) (mouse) (UniProt Q7TT79)
T1 sequence: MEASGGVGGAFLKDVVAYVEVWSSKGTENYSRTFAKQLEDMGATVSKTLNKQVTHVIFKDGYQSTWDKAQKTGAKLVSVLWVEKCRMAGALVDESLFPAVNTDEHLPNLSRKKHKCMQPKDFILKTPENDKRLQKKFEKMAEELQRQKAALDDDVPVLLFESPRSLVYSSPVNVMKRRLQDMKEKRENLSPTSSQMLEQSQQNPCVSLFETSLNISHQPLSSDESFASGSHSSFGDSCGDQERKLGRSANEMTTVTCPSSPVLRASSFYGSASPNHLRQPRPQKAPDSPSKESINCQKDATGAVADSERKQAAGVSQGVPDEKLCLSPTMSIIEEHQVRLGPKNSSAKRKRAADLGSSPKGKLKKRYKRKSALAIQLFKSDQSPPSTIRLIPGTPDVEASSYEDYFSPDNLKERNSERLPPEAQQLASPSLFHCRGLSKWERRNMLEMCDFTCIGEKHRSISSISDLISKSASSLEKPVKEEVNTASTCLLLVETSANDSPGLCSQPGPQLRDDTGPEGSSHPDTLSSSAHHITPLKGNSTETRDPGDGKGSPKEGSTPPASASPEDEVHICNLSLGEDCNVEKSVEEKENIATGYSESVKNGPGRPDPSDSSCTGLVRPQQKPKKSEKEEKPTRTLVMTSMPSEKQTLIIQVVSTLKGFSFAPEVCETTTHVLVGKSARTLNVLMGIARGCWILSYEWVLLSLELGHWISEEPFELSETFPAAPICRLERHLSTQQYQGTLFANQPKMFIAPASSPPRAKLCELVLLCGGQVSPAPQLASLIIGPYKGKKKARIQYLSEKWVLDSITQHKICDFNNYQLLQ
Experiment: condition: 1 μg RecA with 4 μg (His)6-MBP-MCPH1 in 30 μl; pull-down; (His)6-MBP-MCPH1 (4 μg) incubated with recombinase (1 μg) in 30 μl buffer D (25 mM Tris-HCl pH 7.5, 10% glycerol, 0.01% Igepal, 100 mM KCl, 10 mM imidazole) 30 min at 37°C with Benzonase and 2 mM MgCl2; captured on Talon resin via the (His)6 tag; SDS-PAGE with Coomassie Blue staining; both purified

Substance: Escherichia coli RecA protein (from UniProt P0A7G6 1-353)
- binding: no binding
